Values from PubChem BioAssay AID1159591 (NIAID, 2016)
The deposit covers 756 reagents; shown is an unselected part. Over the whole deposit, 130 (17%) got an active call. 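Active calls include both lower and higher Tnf reporter signal.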 The numbers tell different reagents against one gene apart. Reagent sequences are not shown. Not given: the amount of reagent.

- Test: 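TLR7/8 agonist R848 and Tnf expression after gene knock-down in mouse macrophages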
- Cell system: mouse RAW264.7 G9 macrophage reporter clone (GFP-p65, Tnf promoter-mCherry)
- Reagents: single siRNA against mouse genes
- Duration: cells assayed 48 to 72 hours after siRNA transfection; R848 for 16 hours before fixing
- Treatment: R848 (TLR7/8 agonist) for 16 hours before fixation; dose not given
- Measured: 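mCherry Tnf promoter reporter in nuclei imaged after 16 hours of R848, background removed, robust z relative to non-targeting controls using plate median and MAD, replicate average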
- Scale: mean Tnf reporter z-score: higher = stronger Tnf promoter reporter signal than controls
- Call rule: 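Absolute z above 1, 1.5, 2 or 2.5 scores 25 up to 100; no stated active threshold; in practice calls fall at roughly z ≤ -1.5 or z ≥ 1.5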
- Meaning of the calls: active = reporter clearly up or down; inactive = little reporter change

Egr2 (early growth response 2) #1 | mean Tnf reporter z-score = -0.0861; Call = inactive
Egr2 (early growth response 2) #2 | mean Tnf reporter z-score = -1.79; Call = active
Egr2 (early growth response 2) #3 | mean Tnf reporter z-score = -2.14; Call = active
Egr2 (early growth response 2) #4 | mean Tnf reporter z-score = -2.76; Call = active
Egr2 (early growth response 2) #5 | mean Tnf reporter z-score = -3; Call = active
Egr2 (early growth response 2) #6 | mean Tnf reporter z-score = -2.16; Call = active
Ly96 (lymphocyte antigen 96) #1 | mean Tnf reporter z-score = 0.954; Call = inactive
Ly96 (lymphocyte antigen 96) #2 | mean Tnf reporter z-score = -1.05; Call = inactive
Ly96 (lymphocyte antigen 96) #3 | mean Tnf reporter z-score = 0.299; Call = inactive
Ly96 (lymphocyte antigen 96) #4 | mean Tnf reporter z-score = 0.571; Call = inactive
Ly96 (lymphocyte antigen 96) #5 | mean Tnf reporter z-score = 0.226; Call = inactive
Ly96 (lymphocyte antigen 96) #6 | mean Tnf reporter z-score = 0.147; Call = inactive
Tradd (TNFRSF1A-associated via death domain) #1 | mean Tnf reporter z-score = 2.3; Call = active
Tradd (TNFRSF1A-associated via death domain) #2 | mean Tnf reporter z-score = -0.955; Call = inactive
Tradd (TNFRSF1A-associated via death domain) #3 | mean Tnf reporter z-score = -0.0661; Call = inactive
Tradd (TNFRSF1A-associated via death domain) #4 | mean Tnf reporter z-score = 0.666; Call = inactive
Tradd (TNFRSF1A-associated via death domain) #5 | mean Tnf reporter z-score = -1.2; Call = inactive
Tradd (TNFRSF1A-associated via death domain) #6 | mean Tnf reporter z-score = 1.39; Call = inactive
Mapk14 (mitogen-activated protein kinase 14) #1 | mean Tnf reporter z-score = -0.156; Call = inactive
Mapk14 (mitogen-activated protein kinase 14) #2 | mean Tnf reporter z-score = 0.273; Call = inactive
Mapk14 (mitogen-activated protein kinase 14) #3 | mean Tnf reporter z-score = -0.331; Call = inactive
Mapk14 (mitogen-activated protein kinase 14) #4 | mean Tnf reporter z-score = -0.358; Call = inactive
Mapk14 (mitogen-activated protein kinase 14) #5 | mean Tnf reporter z-score = -1.66; Call = active
Mapk14 (mitogen-activated protein kinase 14) #6 | mean Tnf reporter z-score = -0.72; Call = inactive

Records above whose gene name begins with E or e:
Egr2 (early growth response 2) #1 | mean Tnf reporter z-score = -0.0861; Call = inactive
Egr2 (early growth response 2) #2 | mean Tnf reporter z-score = -1.79; Call = active
Egr2 (early growth response 2) #3 | mean Tnf reporter z-score = -2.14; Call = active
Egr2 (early growth response 2) #4 | mean Tnf reporter z-score = -2.76; Call = active
Egr2 (early growth response 2) #5 | mean Tnf reporter z-score = -3; Call = active
Egr2 (early growth response 2) #6 | mean Tnf reporter z-score = -2.16; Call = active
